Measurements as given in patent US12428446B2 (Eyebio Korea, priority 2019, dated 2025).
Where no end group is shown, it is not given here. [ ]: non-standard residue; d: D form. Hyp = O=C(O)[C@@H]1C[C@@H](O)CN1; Aib = CC(C)(N)C(=O)O

Assay: general procedure: Fmoc solid-phase peptide synthesis; 2-chlorotrityl resin; DIC/HOBt
Settings: whole synthesis, scale 50 mmol

Row | Substance | crude mass [g] | crude mass (run 1) [g]
1 | DGLAGP | 18.87 | –
2 | DGLAGPK | 21.37 | –
3 | GLAGPK | 18.63 | –
4 | GQDGLA | 20.80 | –
5 | Hyp-Gly-Gln-Glu-Phenyl Gly-Leu-Ala | 23.91 | –
6 | Hyp-Gly-Gln-Glu-tert Leu-Leu-Ala | 20.35 | –
7 | LGLAGPK | 23.25 | –
8 | Leu-Ala-Gly-Pro-Lys (LAGPK) | 16.16 | –
9 | QDGLAG | 19.28 | –
10 | QDGLAGPK | 28.3 | –
11 | QLGLAGPK | 26.4 | –
12 | [Hyp]GLAGPK | 18.63 | –
13 | [Hyp]GQAG | 24.4 | –
14 | [Hyp]GQAGL | 11.82 | –
15 | [Hyp]GQAGLA | 20.2 | –
16 | [Hyp]GQAL | 13.57 | –
17 | [Hyp]GQALL | 12.44 | –
18 | [Hyp]GQAV | 11.94 | –
19 | [Hyp]GQAVL | 10.47 | –
20 | [Hyp]GQDA | 17.10 | –
21 | [Hyp]GQDAL | 22.12 | –
22 | [Hyp]GQDALA | 24.50 | –
23 | [Hyp]GQDG | 16.7 | –
24 | [Hyp]GQDGL | 21.1 | –
25 | [Hyp]GQDGLA | 24.4 | –
26 | [Hyp]GQDGLAG | 27.5 | –
27 | [Hyp]GQDGPK | 21.35 | –
28 | [Hyp]GQDL | 20.30 | –

Row | Substance | crude mass [g] | crude mass (run 1) [g]
29 | [Hyp]GQDLL | 22.48 | –
30 | [Hyp]GQDLLA | 24.80 | –
31 | [Hyp]GQDV | 23.25 | –
32 | [Hyp]GQDVL [Example 22] | – | 20.76
33 | [Hyp]GQDVL [Example 34] | – | 20.62
34 | [Hyp]GQDVLA | 20.76 | –
35 | [Hyp]GQDVLAG | 30.26 | –
36 | [Hyp]GQD[Aib] | 8.96 | –
37 | [Hyp]GQD[Aib]LA | 14.68 | –
38 | [Hyp]GQEL | 18.66 | –
39 | [Hyp]GQELL | 20.76 | –
40 | [Hyp]GQELLA | 15.41 | –
41 | [Hyp]GQEV | 19.74 | –
42 | [Hyp]GQEVL | 18.81 | –
43 | [Hyp]GQEVLA | 17.53 | –
44 | [Hyp]GQE[Aib]LA | 22.48 | –
45 | [Hyp]GQHGL | 20.64 | –
46 | [Hyp]GQLGLAG | 23.1 | –
47 | [Hyp]GQLL | 12.91 | –
48 | [Hyp]GQLLL | 20.26 | –
49 | [Hyp]GQLLLA | 22.60 | –
50 | [Hyp]GQLV | 15.41 | –
51 | [Hyp]GQLVL | 20.76 | –
52 | [Hyp]GQLVLA | 19.39 | –
53 | [Hyp]GQ[Aib]GL | 14.68 | –
54 | [Hyp]GQ[dD]L | 8.41 | –
55 | cis-4F-Pro-Gly-Gln-Asp-Gly | 15.91 | –
